PubChem BioAssay AID504784 – Drosophila RNAi Screening Center, 2011
In all, the deposit lists about 17,000 reagents; shown is a random part of those that have a named target and a result. 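Each column is one replicate's B-score; the combined score over replicates was not deposited, so single values may mislead.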 Not all columns of the deposit are shown.

Test: 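Search for regulators of lipid droplet storage in oleate-fed fly cells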 (primary screen)
System: Drosophila Kc167 embryonic cells
Knock-down reagent: long dsRNA against Drosophila genes, about 250 ng dsRNA per well
Time to read-out: 4 days
Treatment: cells fed 400 µM oleic acid bound to BSA
Read-out: 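Microscope images give a droplet-to-nucleus area ratio, taken as log and converted to a screen-wide B-score; higher values mean greater lipid storage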
Scale: droplet/nuclear area B-score: higher = more stored lipid (overstorage)

Target gene	amplicon	droplet/nuclear area B-score, replicate 1	droplet/nuclear area B-score, replicate 2
CG42686 (retired record)	DRSC15247	1.37	-0.506
CG42686 (retired record)	DRSC15248	0.562	0.434
CG42686 (retired record)	DRSC22995	-0.805	0.32
CG3618	DRSC11746	2.14	3.39
Ttd14	DRSC06632	-3.27	1.48
Ttd14	DRSC06942	1.56	-0.188
CG13243	DRSC01920	-1.21	0.951
Nup58	DRSC16235	0.275	1.49
dob	DRSC19948	-1.21	0.759
CG10353	DRSC19354	1.48	-0.354
Ranbp21	DRSC19447	1.15	1.14
Pvf3	DRSC02284	1.06	0.322
Pvf3	DRSC02285	-0.72	-3.18
Pvf3	DRSC02286	-1.51	-0.005
Pvf3	DRSC02751	0.982	0.219
Su(Tpl)	DRSC10954	-1.16	2.64
Catsup	DRSC03288	-0.455	0.299
Cyp313a1	DRSC16624	0.0759	-0.503
CG15864	DRSC15122	0.0707	-1.61
Jon66Ci	DRSC10772	-0.554	-0.132
CG32855	DRSC13131	-0.0395	0.179
TppII	DRSC07565	1.55	1.65
Mettl14	DRSC03073	4.97	-2.03
spn-D	DRSC22641	0.497	-0.226
tth	DRSC19435	2.56	0.222
Fuca	DRSC10591	-0.288	-0.0286
Rab23	DRSC12305	0.481	-0.0245
Cdc6	DRSC10563	-0.0296	0.492
mesh	DRSC14472	2.03	-0.907
mesh	DRSC15098	-0.187	-0.0233
mesh	DRSC15099	-0.0355	0.426
CG31343	DRSC15887	-0.0587	1.99
Sod3	DRSC07324	-1.1	-0.768
Acf	DRSC14101	0.85	-0.681
CG31327	DRSC13019	-0.335	1.71
CG1902	DRSC06798	1.48	0.92
CG7791	DRSC04891	-0.169	-0.944
CG14455	DRSC11712	0.107	0.00389
unc-13-4A	DRSC10201	-0.28	-0.201
unc-13-4A	DRSC10202	-0.543	1.1
unc-13-4A	DRSC10203	-0.0111	0.465
unc-13-4A	DRSC11013	0.347	-0.929
TM9SF2	DRSC03197	2	0.179
fiz	DRSC20188	-1.65	-0.185
CG13999	DRSC02331	-0.434	0.251
GluRIIB	DRSC03335	-1.04	0.306
CRMP	DRSC12073	-0.93	1.34
CRMP	DRSC12345	0.0381	-1.09

An excerpt from above, showing only “droplet/nuclear area B-score, replicate 1”.
Pvf3 [DRSC02285]: -0.72
Pvf3 [DRSC02286]: -1.51
Pvf3 [DRSC02751]: 0.982
Su(Tpl) [DRSC10954]: -1.16

Additional reagents follow:
Target gene	amplicon	droplet/nuclear area B-score, replicate 1	droplet/nuclear area B-score, replicate 2
Cys	DRSC16637	-0.198	-2.37
Mco3	DRSC15926	-0.329	0.137
salr	DRSC03607	1.82	1.01
Atg3	DRSC10736	1.65	0.00312
Atg3	DRSC21758	-1.08	-0.904
CG5641	DRSC15852	-0.163	6.98
CG14642	DRSC12228	0.396	0.859
Zip89B	DRSC16128	-0.908	-1.28
sol	DRSC20587	0.83	0.289
CG12493	DRSC08279	-0.957	-0.426
Elp4	DRSC02999	0.978	1.03
CG12480	DRSC19460	1.03	0.0612
Spn28Db	DRSC22033	-0.776	2.22
Spg7	DRSC18469	1.64	0.424
CG16704	DRSC00475	-0.807	0.357
CG7133	DRSC11798	0.948	-0.181
ppk24	DRSC15093	-2.39	1.31
CG12990	DRSC19510	-2.8	-0.743
Ugt302C1	DRSC15353	0.703	0.00648
Cpsf5	DRSC10374	-0.697	-0.469
CG18745	DRSC15382	-0.267	0.771
COX7AL	DRSC15313	-3.15	-0.868
CG5565	DRSC00690	1.26	-1.06
ppk30	DRSC15302	0.281	0.148
CG6761	DRSC10705	-0.0327	1.02
slam	DRSC03240	0.331	0.746
CG11257	DRSC06068	-0.849	0.332
Zip48C	DRSC06314	-1.66	0.981
Grip71	DRSC02042	1.31	1.37
PIG-T	DRSC17774	0.316	-0.721
Or67d	DRSC10158	1.17	0.753
CG7126	DRSC16201	-0.161	1.9
Rpt6	DRSC20571	-0.325	0.35
CtsF	DRSC12056	0.163	-0.805
CtsF	DRSC12195	2.31	0.23
CtsF	DRSC12196	-0.172	0.032
